Data: article PMC9931185
Results are given in words; binding and its absence hold for the method and conditions named. Binding seen in cells or lysates may run through a third protein. Some entries that bind do so weakly or less than the wild type.

Chains of the proteins cited; added tags and fusions are not shown.
UniProt Q01094: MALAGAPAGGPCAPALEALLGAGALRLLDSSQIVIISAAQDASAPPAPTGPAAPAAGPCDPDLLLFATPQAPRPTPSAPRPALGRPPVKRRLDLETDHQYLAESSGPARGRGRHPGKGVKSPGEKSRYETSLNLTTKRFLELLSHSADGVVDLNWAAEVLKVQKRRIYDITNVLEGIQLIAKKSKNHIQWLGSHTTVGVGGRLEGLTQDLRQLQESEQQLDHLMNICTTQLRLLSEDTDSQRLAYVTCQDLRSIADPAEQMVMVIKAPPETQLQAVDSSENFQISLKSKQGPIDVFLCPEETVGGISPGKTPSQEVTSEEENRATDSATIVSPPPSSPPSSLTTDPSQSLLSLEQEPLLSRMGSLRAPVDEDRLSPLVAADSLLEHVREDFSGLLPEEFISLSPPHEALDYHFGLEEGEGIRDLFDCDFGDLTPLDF
UniProt Q9NVX2: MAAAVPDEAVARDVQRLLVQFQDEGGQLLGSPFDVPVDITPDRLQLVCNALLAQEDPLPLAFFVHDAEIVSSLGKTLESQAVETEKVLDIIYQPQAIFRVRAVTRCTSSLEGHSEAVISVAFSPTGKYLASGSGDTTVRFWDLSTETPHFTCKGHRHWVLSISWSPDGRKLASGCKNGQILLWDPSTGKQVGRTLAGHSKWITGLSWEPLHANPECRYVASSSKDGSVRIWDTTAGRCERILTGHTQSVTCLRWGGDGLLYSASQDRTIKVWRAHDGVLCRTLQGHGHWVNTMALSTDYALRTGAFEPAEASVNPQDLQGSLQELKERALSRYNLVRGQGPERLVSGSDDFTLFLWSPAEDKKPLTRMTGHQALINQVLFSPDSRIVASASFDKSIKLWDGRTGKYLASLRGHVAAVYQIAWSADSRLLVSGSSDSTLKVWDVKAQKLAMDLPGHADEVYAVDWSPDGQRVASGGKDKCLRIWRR

Target: E2F1 (human (human NSCLC cell lines; the line of the Co-IP is not named)) (UniProt Q01094)
Assay: co-IP; 1.0 mg protein of cell lysate incubated with antibodies at 4°C overnight, then 20 μL beads at 4°C for 2 h, washed three times, SDS-PAGE and western blot; precipitating antibody and cell line not stated

- binding: binds
Substance: Notchless homolog 1 (NLE1) (from UniProt Q9NVX2 1-485)
